Source: article PMC6375223
These are yes or no findings as the source states them, for the method shown. In cells and extracts the contact can be indirect.

Amino acid sequences for entries named in this document (tags omitted). A change or cut given only in a name is not applied to a line headed by its entry.
UniProt Q13309: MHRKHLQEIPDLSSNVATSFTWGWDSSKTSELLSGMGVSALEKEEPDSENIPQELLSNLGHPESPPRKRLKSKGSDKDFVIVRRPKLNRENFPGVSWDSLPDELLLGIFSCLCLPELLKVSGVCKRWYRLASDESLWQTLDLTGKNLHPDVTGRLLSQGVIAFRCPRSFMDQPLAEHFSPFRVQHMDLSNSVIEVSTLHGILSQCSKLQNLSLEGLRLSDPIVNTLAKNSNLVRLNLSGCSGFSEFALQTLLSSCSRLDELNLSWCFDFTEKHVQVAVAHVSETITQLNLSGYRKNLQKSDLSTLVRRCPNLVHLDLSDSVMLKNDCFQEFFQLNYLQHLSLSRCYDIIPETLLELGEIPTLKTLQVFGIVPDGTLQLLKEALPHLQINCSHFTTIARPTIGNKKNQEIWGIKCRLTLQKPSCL

Target: SKP2ΔF (UniProt Q13309)
Experiment: co-IP; 293 T cells transfected with the indicated plasmids, whole-cell lysate (weak RIPA lysis buffer), immunoprecipitation and immunoblotting

B1: Programmed cell death protein 4 (PDCD4), endogenous (protein, UniProt Q53EL6 1-469)
chain: MDVENEQILNVNPADPDNLSDSLFSGDEENAGTEEIKNEINGNWISASSINEARINAKAKRRLRKNSSRDSGRGDSVSDSGSDALRSGLTVPTSPKGRLLDRRSRSGKGRGLPKKGGAGGKGVWGTPGQVYDVEEVDVKDPNYDDDQENCVYETVVLPLDERAFEKTLTPIIQEYFEHGDTNEVAEMLRDLNLGEMKSGVPVLAVSLALEGKASHREMTSKLLSDLCGTVMSTTDVEKSFDKLLKDLPELALDTPRAPQLVGQFIARAVGDGILCNTYIDSYKGTVDCVQARAALDKATVLLSMSKGGKRKDSVWGSGGGQQSVNHLVKEIDMLLKEYLLSGDISEAEHCLKELEVPHFHHELVYEAIIMVLESTGESTFKMILDLLKSLWKSSTITVDQMKRGYERIYNEIPDINLDVPHSYSVLERFVEECFQAGIISKQLRDLCPSRGRKRFVSEGDGGRLKPESY
In the case of B1, the binding is reported as “no binding”.
